Reference: PubChem BioAssay
The other results are listed elsewhere or left out. Entries with a potency or affinity are not part of this list. The source made no clear call on entries shown without one.

How the values were obtained:
[1] = Polyglutamine toxicity reduction dose response, whole organism Drosophila SCA1 model (AID 1595); details: at 1 µM, stronger effect = higher value
PubChem AID 1597 = details: Drosophila SCA1 polyglutamine model, at 1 µM, stronger effect = higher value

SMILES	suppression of toxicity [1]	suppression of toxicity (PubChem AID 1597)
C[N+](C)(C)CCO	7.14	7.14
CN[C@H](CC(=O)O)C(=O)O	0	17.9
O=C1C(CCS(=O)c2ccccc2)C(=O)N(c2ccccc2)N1c1ccccc1 (stereo not drawn)	1.43	3.57
CCN(CC)C(=O)N1CCN(C)CC1	1.43	2.15
O=C(O)c1cc(=O)c2ccccc2o1	1.43	2.15
CC(=O)O[C@H]1C[C@@]2(C)[C@@H](C[C@@H](O)C3[C@]2(C)CC[C@H]2[C@H](C)[C@H](O)CC[C@]32C)/C1=C(/CCC=C(C)C)C(=O)O (stereo partly drawn)	4.29	7.14
O=c1ccn([C@@H]2O[C@H](COP(=O)(O)OP(=O)(O)OP(=O)(O)O)[C@@H](O)[C@H]2O)c(=O)[nH]1	4.29	5.71
CC[C@@H](CO)NCCN[C@@H](CC)CO	18.6	0.715
CN1CCC[C@H]1c1cccnc1	0	10
CSc1ccc2c(c1)C(N1CCN(C)CC1)Cc1ccccc1S2 (stereo not drawn)	1.43	2.15
NCCSSCCN	1.43	1.43
Cc1c(OCC(F)(F)F)ccnc1CS(=O)c1nc2ccccc2[nH]1 (stereo not drawn)	0	0.715
CC(Cc1ccc(O)c(O)c1)C(C)Cc1ccc(O)c(O)c1 (stereo not drawn)	0	0.715
COc1cc2nc(N3CCN(C(=O)c4ccco4)CC3)nc(N)c2cc1OC	4.29	5

A different layout for part of the listing above.
CC[C@@H](CO)NCCN[C@@H](CC)CO
  suppression of toxicity [1]: 18.6; suppression of toxicity (PubChem AID 1597): 0.715
CN1CCC[C@H]1c1cccnc1
  suppression of toxicity [1]: 0; suppression of toxicity (PubChem AID 1597): 10
